Laboratory results from the supplement of paper PMC12889115.
Some of the results follow. Values are raw readings; no control value is given beside them.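 Primary screen: polymyxin B was added at a level permeabilizing Salmonella outer membranes while sparing inner membranes. DMSO wells, both with and without polymyxin B, established maximum growth. Plate-to-plate variation meant each plate was ranked on its own, and the lowest-OD600 compounds were selected as hits.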

Test system: Salmonella enterica serovar Typhimurium SL1344
Test: bacterial growth OD600 after 18 h with compound and polymyxin B; higher = more bacterial growth (less inhibition)
Conditions: 50 µM, Mueller-Hinton broth

| SMILES | bacterial growth OD600 (polymyxin B 0.75 µg/mL) | bacterial growth OD600 (polymyxin B 1 µg/mL) |
| --- | --- | --- |
| CCC1CN(Cc2cccn2-c2ncccn2)Cc2ccc(Cl)cc2O1 (stereo unspecified) | 0.687 |  |
| COc1ccc(OC)c(Cc2nnc(CCC(=O)NCc3csc(C(C)C)n3)o2)c1 |  | 1.01 |
| COc1ccc(-n2cc(CNCc3cnn(C)c3)c(-c3cccc(F)c3)n2)cc1 |  | 0.812 |
| COc1ccccc1CN(C)C(=O)CCn1nnnc1CN1CCOCC1 |  | 0.861 |
| CCNC(=O)c1cn(CCc2ccccc2)cc(C(=O)N2CCC(c3ccccc3)CC2)c1=O | 0.888 |  |
| COc1ccc(OCc2cc(C(=O)N(Cc3nccn3C)C(C)C)no2)c2ccccc12 |  | 0.774 |
| Cc1cccc(-c2cnc(-c3ccncc3)nc2C2CCN(C(=O)c3ccc(F)c(F)c3)CC2)c1 | 0.011 |  |
| CC(C)Oc1cccc(C(=O)C2CCCN(C(=O)c3ccsc3)C2)c1 (stereo unspecified) |  | 0.905 |
| O=C(c1coc(COc2ccc(F)cc2Cl)n1)N1CCCCCC1 |  | 0.671 |
| COCCN1CCN(C(=O)c2sc3ncnc(NCCc4ccccc4OC)c3c2C)CC1 | 0.853 |  |
| O=C(C1CC(Cc2cccc(F)c2)=NO1)N1CCC(C(O)c2cccs2)CC1 (stereo unspecified) | 0.773 |  |
| C=C(C)CN(CC)C(=O)C1CCC(=O)N(CCCN2CCCC2=O)C1 (stereo unspecified) |  | 0.789 |
| CC(=O)NCC1CCCN(C(=O)c2ccc3nc(Cc4cccc(Cl)c4)oc3c2)C1 (stereo unspecified) |  | 1.13 |
| Fc1ccc(CN2CCCC3(CCN(C4CCC4)C3)C2)cc1 (stereo unspecified) | 0.752 |  |
| CC1(C)Cc2c(cnn2-c2cccc(F)c2)C(NC(=O)CCc2cnccn2)C1 (stereo unspecified) |  | 0.209 |
| COc1cccc2c1OCC(CN1CCC(n3nccc3NC(=O)C3CC3)CC1)=C2 |  | 1.14 |
| Cc1nc(CCNc2nc3nonc3nc2N2CCCC2)sc1C | 0.803 |  |
| COc1cccc(-c2cnc(-c3ccncc3)nc2C2CCN(Cc3ccccc3OC)CC2)c1 | 0.821 |  |
| COc1ccccc1OCC(=O)NCC1CCCN(Cc2ccccc2)C1 (stereo unspecified) |  | 0.992 |
| COCc1ccc(C(=O)N2CCc3[nH]nc(-c4ccc5c(c4)OCO5)c3C2)o1 | 0.881 |  |
| Cc1cccc(C)c1OCc1cc(C(=O)N2CCN3CCCC3C2)no1 (stereo unspecified) |  | 0.976 |

Reformatted field by field: two of the compounds above
COc1ccc(OCc2cc(C(=O)N(Cc3nccn3C)C(C)C)no2)c2ccccc12
  bacterial growth OD600 (polymyxin B 1 µg/mL): 0.774
O=C(C1CC(Cc2cccc(F)c2)=NO1)N1CCC(C(O)c2cccs2)CC1 (stereo unspecified)
  bacterial growth OD600 (polymyxin B 0.75 µg/mL): 0.773
